Results are given in words; binding and its absence hold for the method and conditions named. In cells and extracts the contact can be indirect. Binding calls can cover weak binding; strength is not graded here.
Key:
GFP-PKD2 ΔC1a (human) = GFP-PKD2 ΔC1a (human) (UniProt Q9BZL6); assay: co-IP; GFP-PKD2 (WT or deletion mutants) precipitated with GFP trap (GFP nanobody beads) from lysates of transfected HEK293 cells stimulated with H2O2 (10 mM, 10 min); blot for PKCδ
GFP-PKD2 ΔC1b (human) = GFP-PKD2 ΔC1b (human) (UniProt Q9BZL6); assay: as above

The chains behind the UniProt entries cited, without tags or fusion partners. Where a name states a change or a piece, a line headed by the entry shows the natural chain unless it says otherwise.
UniProt Q9BZL6: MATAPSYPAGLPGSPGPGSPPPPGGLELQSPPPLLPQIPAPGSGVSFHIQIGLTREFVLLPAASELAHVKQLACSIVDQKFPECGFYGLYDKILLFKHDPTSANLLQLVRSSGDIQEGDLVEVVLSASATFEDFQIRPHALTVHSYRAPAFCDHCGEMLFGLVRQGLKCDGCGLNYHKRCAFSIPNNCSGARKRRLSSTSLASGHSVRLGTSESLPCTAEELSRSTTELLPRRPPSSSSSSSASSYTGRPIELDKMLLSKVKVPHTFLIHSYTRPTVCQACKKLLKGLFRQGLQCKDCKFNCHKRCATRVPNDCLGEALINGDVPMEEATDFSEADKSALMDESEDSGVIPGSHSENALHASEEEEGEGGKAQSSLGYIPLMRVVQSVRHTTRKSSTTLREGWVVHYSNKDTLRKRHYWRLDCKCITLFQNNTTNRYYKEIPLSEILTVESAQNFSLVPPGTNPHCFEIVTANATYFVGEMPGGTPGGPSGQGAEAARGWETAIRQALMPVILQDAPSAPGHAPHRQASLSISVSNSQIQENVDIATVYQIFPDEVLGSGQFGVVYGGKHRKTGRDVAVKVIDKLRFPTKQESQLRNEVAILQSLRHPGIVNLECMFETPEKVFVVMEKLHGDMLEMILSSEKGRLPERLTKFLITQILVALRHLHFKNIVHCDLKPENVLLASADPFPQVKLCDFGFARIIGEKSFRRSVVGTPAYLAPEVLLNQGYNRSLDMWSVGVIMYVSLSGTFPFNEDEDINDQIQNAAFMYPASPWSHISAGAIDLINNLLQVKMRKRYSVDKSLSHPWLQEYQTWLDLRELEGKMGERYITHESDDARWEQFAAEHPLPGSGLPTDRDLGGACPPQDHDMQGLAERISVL
UniProt Q05655: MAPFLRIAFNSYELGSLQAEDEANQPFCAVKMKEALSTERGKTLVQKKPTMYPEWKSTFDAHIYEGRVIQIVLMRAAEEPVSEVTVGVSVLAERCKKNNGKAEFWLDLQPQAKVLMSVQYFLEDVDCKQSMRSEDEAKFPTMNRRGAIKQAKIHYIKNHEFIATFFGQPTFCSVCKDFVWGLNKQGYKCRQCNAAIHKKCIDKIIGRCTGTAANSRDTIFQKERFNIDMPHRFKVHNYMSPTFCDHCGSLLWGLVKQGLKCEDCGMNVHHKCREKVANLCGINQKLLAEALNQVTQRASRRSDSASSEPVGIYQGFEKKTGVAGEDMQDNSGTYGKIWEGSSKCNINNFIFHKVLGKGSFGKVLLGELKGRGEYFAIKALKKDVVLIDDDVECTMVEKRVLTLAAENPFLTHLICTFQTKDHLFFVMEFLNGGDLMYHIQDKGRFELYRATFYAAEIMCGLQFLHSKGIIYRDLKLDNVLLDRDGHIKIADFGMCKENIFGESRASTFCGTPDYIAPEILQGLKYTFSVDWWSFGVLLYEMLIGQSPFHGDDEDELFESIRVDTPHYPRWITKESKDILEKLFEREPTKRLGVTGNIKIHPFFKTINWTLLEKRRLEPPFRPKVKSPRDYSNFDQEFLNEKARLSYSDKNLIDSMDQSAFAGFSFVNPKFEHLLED

PKCδ (from UniProt Q05655 1-676) (enzyme)
binding (GFP-PKD2 ΔC1a (human)): binds
binding (GFP-PKD2 ΔC1b (human)): binds

From PMC5430542
